Test results: patent US5665515A, “Method for obtaining a printing plate according to the silver salt diffusion transfer process” (Agfa-Gevaert N.V., priority 1994, dated 1997)

Experiments:
[1] = printing endurance of DTR printing plate treated with stabilising liquid containing the mercapto-compound (offset press GTO 46); conditions: amount (mmol/l): C 2, 6 2.4, 2 1.5, 2/6 2.4/1.5, 3 0.9, 4 2.7; for printing endurance, fresh: fresh plate; for printing endurance, 7 days: plate stored 7 days
Method: (§1) Preparation of the silver halide emulsion coating solution.
(§2) A silver chlorobromide emulsion composed of 98.2 mole % of chloride and 1.8 mole % of bromide was prepared by the double jet precipitation method. The average silver halide grain size was 0.4 μm (diameter of a sphere with equivalent volume) and contained Rhodium ions as internal dopant. The emulsion was orthochromatically sensitized and stabilized by 1-phenyl-5-mercaptotetrazole and a compound of the following formula: [drawing 16]
(§3) The emulsion coating solution and base layer coating solution were simultaneously coated by means of the cascade coating technique to a polyethylene terephthalate support provided with a pack of two backing layers such that the base layer coating was coated directly to the side of the support opposite to the side containing said backing layers. The emulsion layer was coated such that the silver halide coverage expressed as AgNO3 was 1.5 g/m^2 and the gelatin content was 1.5 g/m^2. The emulsion layer further contained 0.15 g/m^2 of 1-phenyl-4-methyl-3-pyrazolidone and 0.25 g/m^2 of hydroquinone. The base layer was coated such that the amount of gelatin in the coated layer was 3 g/m^2.
(§4) The thus obtained element was dried and subjected to a temperature of 40° C. for 5 days and then the emulsion layer was overcoated with a layer containing PdS as physical development nuclei, hydroquinone at 0.4 g/m^2 and formaldehyde at 100 mg/m^2.
(§5) Imaging elements prepared as described above were image-wise exposed using a camera and were subsequently developed by guiding the imaging element through the above transfer developer in 20s, 13s or 5s at a temperature of 30° C. The obtained plates were subsequently stabilised using the above stabilising liquid.
The obtained printing plates were then mounted on an offset press GTO 46 running a K+E 125 ink and a fountain liquid containing 5% of G648 (commercially available from Agfa-Gevaert NV) and 15% of isopropanol.

[2] = ink acceptance of DTR printing plate treated with stabilising liquid containing the mercapto-compound (offset press GTO 46); conditions: number of copies disposed of before satisfactory print, amount (mmol/l): C 2, 6 2.4, 2 1.5, 2/6 2.4/1.5, 3 0.9, 4 2.7
Method: as §1, §2, §3, §4, §5
The obtained printing plates were then mounted on an offset press GTO 46 running a K+E 125 ink and a fountain liquid containing 5% of G648 (commercially available from Agfa-Gevaert NV) and 15% of isopropanol. The results obtained were as follows:
*the ink acceptance is evaluated as the number of copies that have to be
disposed of before a satisfactory print is obtained.

Structure (SMILES)	printing endurance, fresh ([1]; developing time 5 s)	printing endurance, fresh ([1]; developing time 13 s)	printing endurance, 7 days ([1]; developing time 5 s)	printing endurance, 7 days ([1]; developing time 13 s)	ink accept. ([2]; developing time 5 s)	ink accept. ([2]; developing time 13 s)
CCCCCCCCn1nnnc1S [compound 4]	> 10000	> 10000	> 10000	> 10000	< 25 copies	< 25 copies
CCCCCCn1nnnc1S [compound 3]	> 10000	> 10000	> 10000	> 10000	< 25 copies	< 25 copies
CCCCN(CCCC)C(=O)Cn1nnnc1S [compound 2]	> 10000	> 10000	> 10000	> 10000	< 25 copies	< 25 copies
CCCCCCCc1nnc(S)o1 [mercaptocompound C, 2mercapto-5-n.heptyl oxa3,4-diazole, reference compound]	> 10000	> 10000	> 10000	> 10000	25-50 copies	25-50 copies
Sc1nnnn1-c1ccccc1 [compound 6]	> 10000	> 10000	> 10000	> 10000	25-35 copies	25-35 copies
